# PubChem BioAssay AID720511 (Broad Institute, 2013)
# About 1,300 (0.37%) of roughly 350,000 compounds were called active. Inconclusive means that the source gave no clear call. Such entries were picked first, then a sample of the others.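 The calls were made as follows: active = mean added fluorescence quench of at least 8% versus neutral control, with both replicates also reaching 8%; inconclusive = only one of the mean or replicate conditions met; inactive = mean below 8% and not both replicates reaching 8%.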 More than one record can exist for a structure, and the calls need not agree.
# Test: F508del CFTR correction, initial screen, CFBE line, single point (AID 720511);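 also: cells transiently co-express mutant CFTR-F508del with the halide-sensitive YFP; corrector assay measuring rescue of mutant channel to the surface after 24 h compound exposure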
# Conditions: CFBE cells, YFP halide quenching, at 7.58 µM, hits give high values, % fluorescence drop versus neutral controls, stimulated with forskolin plus potentiator P3
row,SMILES,activity (quench increase)
1,Nc1c2c(nc3ccccc13)CCCC2,active: 16.5%
2,O=C(Nc1nccs1)c1cc(-c2ccccc2)nc2ccccc12,inconclusive: 8.46%
3,CC1CC(C)CN(C(=O)/C=C/c2ccc(S(=O)(=O)N3CCOCC3)cc2)C1 (stereo unspecified),active: 8.44%
4,O=C(c1ccccc1)N1CC[C@@H]2[C@H](CO)Nc3ccc(-c4ccc(F)cc4)cc3[C@@H]21,inactive: -1.21%
5,CN(C)CC(=O)N[C@@H]1CC[C@H](CC(=O)NCc2ccccc2F)O[C@H]1CO,inactive: -3.83%
6,COc1cc(C(O)CO)ccc1OS(=O)(=O)O (stereo unspecified),active: 9.96%
7,COc1ccc(NC(=O)N(C)C[C@H]2OCCCC[C@@H](C)Oc3ccc(NC(=O)Nc4ccccc4)cc3C(=O)N([C@@H](C)CO)C[C@H]2C)cc1,inactive: -1.13%
8,CCCNC(=O)c1cc2cc([N+](=O)[O-])ccc2s1,inconclusive: 8.32%
9,Cc1cccc(N2CCN(C(=O)c3cccc(S(=O)(=O)N4CCc5ccccc5C4)c3)CC2C)c1 (stereo unspecified),inconclusive: 8.93%
10,O=C(C1CCC1)N1CC2(C1)[C@H](c1ccccc1)[C@@H](CO)N2CCC(F)(F)F,inactive: 2.5%
11,Cc1sc2nc[nH]c(=O)c2c1-c1ccc(Cl)cc1,inconclusive: 11.9%
12,CN1c2ccc(-c3ccc(F)cc3)cc2[C@H]2[C@H](CCN2S(=O)(=O)c2ccc(F)cc2)[C@H]1CO,inconclusive: 6.15%
13,NCCCC[C@H]1CN=C(N)N1CCC12CC3CC(CC(C3)C1)C2,inactive: 0.372%
14,O=c1[nH]c(-c2cccnc2)nc2sc(-c3ccccc3)cc12,inconclusive: 8.42%
15,O=C(c1ccc(Br)cc1)c1cc([N+](=O)[O-])ccc1N1CCOCC1,active: 11.8%
16,COc1ccc(S(=O)(=O)N2CCCCC2)cc1NC(=O)c1cccnc1SC,inactive: 2.66%
17,Cc1ccc2c(CN3CCN(S(=O)(=O)c4ccc(Cl)cc4)CC3)cc(=O)oc2c1C,active: 18.8%
18,O=C(COc1ccc(F)cc1Cl)Nc1cccc(S(=O)(=O)N2CCCCCC2)c1,active: 8.75%
19,Cc1cc(C(=O)N/N=C/c2ccc([N+](=O)[O-])cc2)c2ccccc2n1,active: 14.1%
20,CCS(=O)(=O)N1CC(=O)N2[C@H](C1)[C@@H](c1ccc(C#CCC(C)C)cc1)[C@@H]2CO,active: 10%
21,Cc1cccc(N2CCN(Cc3cn(C)nc3-c3ccccc3F)CC2)n1,active: 9.14%
22,O=C(Nc1nc(-c2cccs2)cs1)c1ccco1,inconclusive: 9.05%
23,COc1ccc(C#Cc2ccc([C@H]3[C@H]4CN(C(=O)c5ccncc5)CCCCN4[C@H]3CO)cc2)cc1,active: 9.25%
24,Cc1cc(Br)ccc1NC(=O)CNC(=O)Cn1ncc(Cl)c(Cl)c1=O,inconclusive: 10.6%
25,O=C(Cn1ncc(Cl)c(Cl)c1=O)N1CCOCC1,inconclusive: 10%
26,COc1ccc2c3c(n(C)c2c1)[C@@H](CO)N(C(=O)C1CCOCC1)CC31CCN(Cc2cccc(F)c2)CC1,inconclusive: 9.01%

# 4 compounds from above, ordered by number of heavy atoms, ascending:
row,SMILES,activity (quench increase)
13,NCCCC[C@H]1CN=C(N)N1CCC12CC3CC(CC(C3)C1)C2,inactive: 0.372%
21,Cc1cccc(N2CCN(Cc3cn(C)nc3-c3ccccc3F)CC2)n1,active: 9.14%
20,CCS(=O)(=O)N1CC(=O)N2[C@H](C1)[C@@H](c1ccc(C#CCC(C)C)cc1)[C@@H]2CO,active: 10%
18,O=C(COc1ccc(F)cc1Cl)Nc1cccc(S(=O)(=O)N2CCCCCC2)c1,active: 8.75%

# Next entries:

row,SMILES,activity (quench increase)
1,N#C/C(=C\c1ccccc1[N+](=O)[O-])C(=O)NC1CCCCC1,inconclusive: 10.7%
2,COc1ccc(S(=O)(=O)N2CC[C@@H]3[C@@H](CO)Nc4ccc(C5=CCCCC5)cc4[C@@H]32)cc1,active: 8.99%
3,Cc1ccc(C(C)C)c(OCc2ccc(C(=O)N/N=C/c3cccc(O)c3O)cc2)c1,inconclusive: 10.7%
4,CN(C)CC(=O)Nc1ccc2c(c1)[C@@H]1C[C@H](CC(=O)N3CCN(C)CC3)O[C@@H](CO)[C@@H]1O2,inconclusive: 8.25%
5,COc1ccc(S(=O)(=O)Nc2ccc3c(c2)C(=O)N([C@@H](C)CO)C[C@@H](C)[C@H](CN(C)Cc2ccc(Oc4ccccc4)cc2)O3)cc1,active: 10.5%
6,CNC[C@@H]1Oc2ccc(NS(C)(=O)=O)cc2C(=O)N([C@H](C)CO)C[C@@H]1C,inconclusive: 8.01%
7,O=C(CSc1nc2[nH]ncc2c(=O)n1-c1ccc(Cl)c(Cl)c1)NCc1ccccc1Cl,inconclusive: 8.36%
8,C[C@@H]1CN([C@@H](C)CO)C(=O)c2cccc(NC(=O)Nc3ccc4c(c3)OCO4)c2O[C@H]1CN(C)S(=O)(=O)c1ccccc1,active: 8.99%
9,COc1ccc(C(=O)/C(C#N)=N/Nc2cccc([N+](=O)[O-])c2)cc1,inconclusive: 8.5%
10,CN1c2ccc(-c3ccc(C#N)cc3)cc2[C@H]2[C@H](CCN2S(=O)(=O)c2cccc(F)c2)[C@H]1CO,active: 15.5%
11,CC1(C)C[C@H]2C3=CCC4[C@@]5(C)CC[C@H](O)[C@](C)(CO)C5CC[C@@]4(C)[C@]3(C)C[C@H]3O[C@@H]1[C@H](O)[C@]32CO (stereo partly specified),inactive: -5.11%
12,Cc1ccc(S(=O)(=O)N(C)C[C@@H]2Oc3ncc(-c4ccncc4)cc3C(=O)N([C@H](C)CO)C[C@H]2C)cc1,inactive: 0.268%
13,C[C@H]1CN([C@@H](C)CO)C(=O)c2cccc(NC(=O)Nc3ccc(C(F)(F)F)cc3)c2O[C@H]1CN(C)C(=O)NC1CCCCC1,active: 8.85%
14,CCC(=O)N1CC2(CN(C(=O)Cc3ccccc3)C2)c2c(n(C)c3cc(OC)ccc23)[C@H]1CO,inconclusive: 9.09%
15,CC(=O)c1ccccc1OCC(O)CN1CCN(CCN2C(=O)c3cccc4cccc(c34)C2=O)CC1 (stereo unspecified),inconclusive: 8.04%
16,CN(C)/C=N/C1=C(C#N)C(c2cccs2)c2ccc3ccccc3c2O1 (stereo unspecified),inconclusive: 8.83%
17,Cc1cc(C(=O)N/N=C/c2cc(Br)cc(Br)c2OC(=O)c2cccc(F)c2)n[nH]1,inconclusive: 8.71%
18,C[C@@H]1CN([C@@H](C)CO)S(=O)(=O)c2ccc(-c3ccncc3)cc2O[C@H]1CN(C)Cc1cccnc1,inactive: 0.648%
19,Cc1cc(NC(=O)c2coc(=O)c(Br)c2)ccc1C(C)C,inconclusive: 8.35%
20,Oc1[nH]c2ccc(Br)cc2c1N=NC(=S)Nc1ccc(F)cc1,inconclusive: 9.45%
21,COc1ccccc1C(=O)Nc1nnc(CCc2ccccc2)s1,inconclusive: 9.27%
22,CN(Cc1cccs1)C(=O)c1cccc(S(=O)(=O)N2CCCCCC2)c1,active: 31.2%
23,O=C(Nc1cc(S(=O)(=O)N2CCCCC2)ccc1N1CCCCC1)C1CC1,inconclusive: 8.37%
24,CCOC(=O)c1sc(N)c(C(=O)Nc2ccccc2OC)c1C,inconclusive: 8.24%
25,COC(=O)c1ccc(Nc2cc(C)nc3ccc(C)cc23)cc1,inconclusive: 8.32%
26,COc1ccc2c3c(n(C)c2c1)[C@@H](CO)N(CC1CC1)CC31CCN(C(=O)Nc2ccc(F)cc2F)CC1,inconclusive: 9.23%

row,SMILES,activity (quench increase)
1,COc1ccc2c(c1)sc(N)[n+]2Cc1cc(C)cc2cccnc12,active: 11%
2,C[C@H](CO)N1C[C@H](C)[C@@H](CN(C)S(=O)(=O)c2ccc(Cl)cc2)Oc2ccc(NC(=O)NC3CCCCC3)cc2C1=O,inactive: -2.71%
3,COc1ccc(Nc2nc3cc(-c4sccc4C)sc3c(=O)n2C)cc1OC,active: 9.6%
4,CC(C)(C)OC(=O)[C@H](Cc1ccccc1)NC(=O)c1[nH]cnc1C(=O)N[C@@H](Cc1ccccc1)C(=O)OCc1ccccc1,inactive: 2.04%
5,Cn1cc(C(=O)OCC2CCN(CCNS(C)(=O)=O)CC2)c2ccccc21,active: 16.4%
6,CC1(C)CC(NC(=O)COc2ccccc2Cl)CC(C)(C)N1,inactive: 1.13%
7,COc1cccc(-c2cc(N3C(=O)Nc4ccccc4N3O)n[nH]2)c1,inconclusive: 8.01%
8,C=C(C)Cn1c(CN(C)Cc2ccccc2)nc2c1c(=O)n(C)c(=O)n2C,inconclusive: 9.1%
9,CN(C)CC(=O)N1[C@H](C#N)[C@H](c2ccc(C#CC3CCCC3)cc2)[C@@H]1CO,inactive: 0.359%
10,COc1ccc(C(=O)N/N=C/c2ccccc2OC(=O)c2ccccc2)cc1,inconclusive: 10.7%
11,CCCCCc1ccc(OCCC[n+]2ccccc2)c(CCCCC)c1,inconclusive: 9.87%
12,Clc1ccc2nc(COc3ccccc3)[nH]c2c1,inconclusive: 9.58%
13,CC(C)(C)NC(=O)C(OC(=O)c1cccs1)c1ccccc1 (stereo unspecified),inconclusive: 8.88%
14,CCNc1nc(NCC)nc(-n2nc(C)cc2C)n1,inconclusive: 8.74%
15,COc1ccc2c3c([nH]c2c1)[C@H](CO)N(Cc1ccccc1F)CC31CN(C(=O)C2CCCC2)C1,inconclusive: 8.54%
16,NS(=O)(=O)c1ccc(N/N=C/c2ccc(O)cc2O)c([N+](=O)[O-])c1,inconclusive: 8.54%
17,C[C@@H]1CN([C@H](C)CO)C(=O)c2cc(NC(=O)Cc3ccccc3)ccc2O[C@@H](C)CCCCO[C@H]1CN(C)C(=O)Nc1cccc2ccccc12,inactive: -1.38%
18,O=C(O)c1ccccc1-c1ccc(/C=C/c2cc(C(F)(F)F)[nH]c(=O)n2)o1,inconclusive: 9.79%
19,CC(=O)Nc1ccc(NC(=O)COC(=O)c2ccccn2)cc1,inconclusive: 10.7%
20,O=C(C1CCCCC1)N1CC2(C1)[C@H](c1ccccc1)[C@H](CO)N2Cc1ccc(Cl)cc1,inconclusive: 8.18%
21,NS(=O)(=O)c1cccc(NC(=O)CCN2C(=O)C3CCCCC3C2=O)c1 (stereo unspecified),inactive: 0.14%
22,Cc1ccc(S(=O)(=O)Nc2ccc3c(c2)C(=O)N([C@@H](C)CO)C[C@H](C)[C@H](CN(C)S(=O)(=O)c2ccc(Cl)cc2)OCCCC[C@@H](C)O3)cc1,inconclusive: 8.01%
23,O=C(C[C@@H]1CC[C@@H]2[C@H](COC[C@H](O)CN2Cc2ccc3c(c2)OCO3)O1)N1CCOCC1,inactive: -2.01%
24,COc1cc(OC)cc(C(=O)NC(c2ccccc2)c2ccccc2)c1,inactive: -1.48%
